According to publication doi:10.1101/2025.06.10.658782:
Results are given in words; binding and its absence hold for the method and conditions named. Binding seen in cells or lysates may run through a third protein. Some binding calls cover weakened binding; strength is not graded here.

By UniProt entry, the sequences of proteins in these tests, tags left out.
UniProt P11166: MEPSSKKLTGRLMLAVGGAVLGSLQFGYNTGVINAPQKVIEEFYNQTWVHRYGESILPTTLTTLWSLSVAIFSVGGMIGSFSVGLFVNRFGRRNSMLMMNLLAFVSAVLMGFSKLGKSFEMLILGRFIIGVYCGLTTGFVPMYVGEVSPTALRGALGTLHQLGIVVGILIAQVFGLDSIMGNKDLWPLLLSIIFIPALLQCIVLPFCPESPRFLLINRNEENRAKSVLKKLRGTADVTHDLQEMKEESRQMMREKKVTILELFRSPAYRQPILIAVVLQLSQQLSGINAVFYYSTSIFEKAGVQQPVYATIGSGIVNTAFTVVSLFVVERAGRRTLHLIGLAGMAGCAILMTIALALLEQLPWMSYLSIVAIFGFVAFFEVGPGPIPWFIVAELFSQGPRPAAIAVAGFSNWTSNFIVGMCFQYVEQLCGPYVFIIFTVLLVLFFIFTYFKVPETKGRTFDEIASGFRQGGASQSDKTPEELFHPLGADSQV
UniProt P20339: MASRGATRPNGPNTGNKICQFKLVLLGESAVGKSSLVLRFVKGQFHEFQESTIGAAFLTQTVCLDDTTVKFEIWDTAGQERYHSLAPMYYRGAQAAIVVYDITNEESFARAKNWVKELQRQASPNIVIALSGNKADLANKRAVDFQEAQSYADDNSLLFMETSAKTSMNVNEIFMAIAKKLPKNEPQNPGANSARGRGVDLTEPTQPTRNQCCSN
UniProt P62820: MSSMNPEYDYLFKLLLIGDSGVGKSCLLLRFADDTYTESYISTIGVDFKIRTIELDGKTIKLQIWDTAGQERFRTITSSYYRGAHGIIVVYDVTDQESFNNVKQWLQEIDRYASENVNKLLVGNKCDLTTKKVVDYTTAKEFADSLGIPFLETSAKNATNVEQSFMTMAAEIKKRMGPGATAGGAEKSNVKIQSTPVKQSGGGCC

Target: Flag-GLUT1 (glucose transporter 1) (human (HeLa cDNA library)) (UniProt P11166)
Test: co-IP

Substance | binding
Rab5A (from UniProt P20339 1-215) | binds
Rab1A (from UniProt P62820 1-205) | binds
